Publication doi:10.1101/158022
Results are given in words; binding and its absence hold for the method and conditions named. Binding seen in cells or lysates may run through a third protein. These calls come from enrichment with a bait or labelling near it, and not all partners need be listed.

Chains of the proteins cited; added tags and fusions are not shown. Residues count along the entry.
UniProt P18065, residues 36-325: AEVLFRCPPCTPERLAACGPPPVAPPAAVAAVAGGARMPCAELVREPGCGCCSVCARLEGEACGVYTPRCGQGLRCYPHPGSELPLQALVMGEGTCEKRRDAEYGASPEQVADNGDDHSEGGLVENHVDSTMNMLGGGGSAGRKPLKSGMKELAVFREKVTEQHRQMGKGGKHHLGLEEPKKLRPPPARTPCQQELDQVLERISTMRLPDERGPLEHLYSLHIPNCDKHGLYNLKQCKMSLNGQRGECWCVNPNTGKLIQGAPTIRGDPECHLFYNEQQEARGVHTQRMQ
UniProt P05019, residues 49-118: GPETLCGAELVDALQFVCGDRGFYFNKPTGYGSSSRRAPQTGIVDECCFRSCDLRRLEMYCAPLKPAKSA

B1: deoxyribose-phosphate aldolase (enzyme, UniProt Q9Y315 1-318)
chain: MSAHNRGTELDLSWISKIQVNHPAVLRRAEQIQARRTVKKEWQAAWLLKAVTFIDLTTLSGDDTSSNIQRLCYKAKYPIREDLLKALNMHDKGITTAAVCVYPARVCDAVKALKAAGCNIPVASVAAGFPAGQTHLKTRLEEIRLAVEDGATEIDVVINRSLVLTGQWEALYDEIRQFRKACGEAHLKTILATGELGTLTNVYKASMIAMMAGSDFIKTSTGKETVNATFPVAIVMLRAIRDFFWKTGNKIGFKPAGGIRSAKDSLAWLSLVKEELGDEWLKPELFRIGASTLLSDIERQIYHHVTGRYAAYHDLPMS

Biological target: insulin growth factor binding protein 2 (human (endogenous in plasma)) (UniProt P18065)
Assay: affinity purification with mass spectrometry

Molecule | binding
insulin growth factor 1 (from UniProt P05019 49-118) | binds
B1 | binds
